Measured values reported in article PMC8274477.
These are yes or no findings as the source states them, for the method shown. Some results given as binding are weak or reduced against the parent protein; the word gives no strength.

Chains of the proteins cited; added tags and fusions are not shown.
UniProt P31939: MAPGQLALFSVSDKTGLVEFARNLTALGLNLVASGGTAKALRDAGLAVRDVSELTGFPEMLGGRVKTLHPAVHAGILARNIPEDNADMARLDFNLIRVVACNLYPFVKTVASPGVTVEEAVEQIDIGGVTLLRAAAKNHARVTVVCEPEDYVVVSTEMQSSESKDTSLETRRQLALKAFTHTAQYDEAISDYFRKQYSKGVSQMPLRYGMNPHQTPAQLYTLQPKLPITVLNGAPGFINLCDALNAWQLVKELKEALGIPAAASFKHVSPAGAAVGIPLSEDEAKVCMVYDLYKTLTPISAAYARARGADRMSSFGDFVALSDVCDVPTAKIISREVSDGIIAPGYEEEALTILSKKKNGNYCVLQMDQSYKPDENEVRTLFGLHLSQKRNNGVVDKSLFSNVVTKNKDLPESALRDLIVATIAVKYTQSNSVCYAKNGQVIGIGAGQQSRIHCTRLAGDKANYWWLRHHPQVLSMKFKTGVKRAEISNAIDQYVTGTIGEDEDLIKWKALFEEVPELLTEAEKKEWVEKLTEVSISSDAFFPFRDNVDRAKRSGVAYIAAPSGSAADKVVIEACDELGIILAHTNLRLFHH
UniProt P20339: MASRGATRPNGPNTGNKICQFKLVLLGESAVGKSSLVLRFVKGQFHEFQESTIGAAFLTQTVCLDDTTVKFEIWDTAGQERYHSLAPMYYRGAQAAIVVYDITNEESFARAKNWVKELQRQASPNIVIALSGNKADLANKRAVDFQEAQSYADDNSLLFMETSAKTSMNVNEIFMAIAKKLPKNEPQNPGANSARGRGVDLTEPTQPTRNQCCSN

Assays:
Assay in all cases: peptide or protein array; HuProt human proteome microarray; 5 ug/5 ml biotin-labelled LUBAC or OTULIN in solution, 1 h at room temperature; Cy5-streptavidin, scanned at 635 nm; BSA as negative control; hits: Z-score >= 3 and I_(Mean_Ratio) >= 1.4; both purified
MCCC2 (human) = biological target: T1, MCCC2 (human) (UniProt Q9HCC0)
T1 sequence: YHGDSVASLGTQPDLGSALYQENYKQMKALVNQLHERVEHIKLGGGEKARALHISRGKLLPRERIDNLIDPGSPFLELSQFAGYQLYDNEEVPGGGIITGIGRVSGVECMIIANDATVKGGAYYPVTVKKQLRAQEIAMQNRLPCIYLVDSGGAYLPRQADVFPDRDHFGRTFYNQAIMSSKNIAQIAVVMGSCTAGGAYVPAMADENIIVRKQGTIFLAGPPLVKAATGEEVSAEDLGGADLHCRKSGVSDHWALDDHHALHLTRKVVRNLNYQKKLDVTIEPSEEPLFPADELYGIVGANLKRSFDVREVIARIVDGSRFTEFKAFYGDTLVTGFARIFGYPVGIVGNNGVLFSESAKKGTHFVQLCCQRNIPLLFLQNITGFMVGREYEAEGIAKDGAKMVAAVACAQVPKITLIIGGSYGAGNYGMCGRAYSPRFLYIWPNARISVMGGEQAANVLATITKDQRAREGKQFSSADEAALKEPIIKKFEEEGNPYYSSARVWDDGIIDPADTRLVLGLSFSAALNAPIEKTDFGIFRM

DLG3 (human) = biological target: T2, DLG3 (human) (UniProt Q92796)
T2 sequence: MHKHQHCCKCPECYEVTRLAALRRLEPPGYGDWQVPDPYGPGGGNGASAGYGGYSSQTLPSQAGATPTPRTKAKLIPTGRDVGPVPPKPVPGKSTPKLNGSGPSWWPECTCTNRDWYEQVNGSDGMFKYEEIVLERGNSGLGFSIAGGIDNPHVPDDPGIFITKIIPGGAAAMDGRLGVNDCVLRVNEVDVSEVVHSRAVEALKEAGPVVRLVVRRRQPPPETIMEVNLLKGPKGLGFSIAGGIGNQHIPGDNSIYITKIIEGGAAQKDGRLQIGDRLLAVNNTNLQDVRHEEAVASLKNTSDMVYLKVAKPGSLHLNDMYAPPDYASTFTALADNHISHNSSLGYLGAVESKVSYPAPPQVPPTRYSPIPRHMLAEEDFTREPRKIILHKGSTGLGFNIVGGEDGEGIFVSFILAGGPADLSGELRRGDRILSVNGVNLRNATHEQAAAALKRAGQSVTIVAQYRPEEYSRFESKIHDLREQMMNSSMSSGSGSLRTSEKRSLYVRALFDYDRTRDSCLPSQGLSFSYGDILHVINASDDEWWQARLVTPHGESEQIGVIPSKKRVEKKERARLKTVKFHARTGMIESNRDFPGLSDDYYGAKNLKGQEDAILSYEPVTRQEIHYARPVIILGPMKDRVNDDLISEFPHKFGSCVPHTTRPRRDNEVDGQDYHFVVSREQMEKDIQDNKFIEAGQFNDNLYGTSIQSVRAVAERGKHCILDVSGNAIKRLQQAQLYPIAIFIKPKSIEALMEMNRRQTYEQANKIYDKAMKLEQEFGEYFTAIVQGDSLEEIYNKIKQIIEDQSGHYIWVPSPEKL

ATIC (human) = ATIC (human) (UniProt P31939)
ANXA3 (human) = biological target: T3, ANXA3 (human) (UniProt P12429)
T3 sequence: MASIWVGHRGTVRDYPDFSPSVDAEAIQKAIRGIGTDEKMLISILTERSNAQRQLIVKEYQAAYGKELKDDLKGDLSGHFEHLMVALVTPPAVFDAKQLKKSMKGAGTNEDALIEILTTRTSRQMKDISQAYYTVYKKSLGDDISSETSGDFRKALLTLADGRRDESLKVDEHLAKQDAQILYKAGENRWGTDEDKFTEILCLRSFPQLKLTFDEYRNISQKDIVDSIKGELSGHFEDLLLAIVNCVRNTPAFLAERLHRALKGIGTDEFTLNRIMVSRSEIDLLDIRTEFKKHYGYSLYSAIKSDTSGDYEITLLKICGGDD

RAB5A (human) = RAB5A (human) (UniProt P20339)
ALDH4A1 (human) = biological target: T4, ALDH4A1 (human) (UniProt P30038)
T4 sequence: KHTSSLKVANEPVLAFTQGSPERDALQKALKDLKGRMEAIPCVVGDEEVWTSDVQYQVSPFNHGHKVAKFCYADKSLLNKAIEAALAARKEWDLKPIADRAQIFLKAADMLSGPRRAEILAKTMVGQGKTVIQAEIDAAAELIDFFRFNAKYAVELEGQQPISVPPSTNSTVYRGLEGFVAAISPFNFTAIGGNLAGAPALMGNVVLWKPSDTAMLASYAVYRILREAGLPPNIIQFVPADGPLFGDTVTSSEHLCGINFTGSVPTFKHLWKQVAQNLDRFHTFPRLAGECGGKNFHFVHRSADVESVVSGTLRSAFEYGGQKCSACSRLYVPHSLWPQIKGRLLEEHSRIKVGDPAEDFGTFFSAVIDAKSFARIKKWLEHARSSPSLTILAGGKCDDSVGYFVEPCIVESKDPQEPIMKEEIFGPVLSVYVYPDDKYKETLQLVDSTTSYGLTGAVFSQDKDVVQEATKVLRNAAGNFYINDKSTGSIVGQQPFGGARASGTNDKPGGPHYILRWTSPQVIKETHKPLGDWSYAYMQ

binding (DLG3 (human)): binds
binding (ATIC (human)): binds
binding (ANXA3 (human)): binds
binding (RAB5A (human)): binds
binding (ALDH4A1 (human)): binds
Substance: linear ubiquitin chain assembly complex (LUBAC), purified as HIS-tagged HOIP with the subunit HOIL-1, biotin-labelled (from UniProt Q96EP0 1-1072; Q9BYM8 1-510)
binding (MCCC2 (human)): binds
